No constants are given. Whether binding was seen depends on the method and setting. Binding seen in cells or lysates may run through a third protein. Some binding calls cover weakened binding; strength is not graded here.
Biological target: Transient receptor potential melastatin-2 (TRPM2) (human (endogenous in U937)) (UniProt O94759)
Assay: co-IP; endogenous proteins in U937 lysate; cells treated with 10, 20 or 30 mM glucose for 48 h; precipitated with anti-p47 phox or anti-TRPM2 antibody overnight at 4 °C and Protein A agarose beads; blotted with anti-p47 phox, anti-phospho-Ser345-p47 phox or anti-TRPM2

By UniProt entry, the sequences of proteins in these tests, tags left out.
UniProt O94759: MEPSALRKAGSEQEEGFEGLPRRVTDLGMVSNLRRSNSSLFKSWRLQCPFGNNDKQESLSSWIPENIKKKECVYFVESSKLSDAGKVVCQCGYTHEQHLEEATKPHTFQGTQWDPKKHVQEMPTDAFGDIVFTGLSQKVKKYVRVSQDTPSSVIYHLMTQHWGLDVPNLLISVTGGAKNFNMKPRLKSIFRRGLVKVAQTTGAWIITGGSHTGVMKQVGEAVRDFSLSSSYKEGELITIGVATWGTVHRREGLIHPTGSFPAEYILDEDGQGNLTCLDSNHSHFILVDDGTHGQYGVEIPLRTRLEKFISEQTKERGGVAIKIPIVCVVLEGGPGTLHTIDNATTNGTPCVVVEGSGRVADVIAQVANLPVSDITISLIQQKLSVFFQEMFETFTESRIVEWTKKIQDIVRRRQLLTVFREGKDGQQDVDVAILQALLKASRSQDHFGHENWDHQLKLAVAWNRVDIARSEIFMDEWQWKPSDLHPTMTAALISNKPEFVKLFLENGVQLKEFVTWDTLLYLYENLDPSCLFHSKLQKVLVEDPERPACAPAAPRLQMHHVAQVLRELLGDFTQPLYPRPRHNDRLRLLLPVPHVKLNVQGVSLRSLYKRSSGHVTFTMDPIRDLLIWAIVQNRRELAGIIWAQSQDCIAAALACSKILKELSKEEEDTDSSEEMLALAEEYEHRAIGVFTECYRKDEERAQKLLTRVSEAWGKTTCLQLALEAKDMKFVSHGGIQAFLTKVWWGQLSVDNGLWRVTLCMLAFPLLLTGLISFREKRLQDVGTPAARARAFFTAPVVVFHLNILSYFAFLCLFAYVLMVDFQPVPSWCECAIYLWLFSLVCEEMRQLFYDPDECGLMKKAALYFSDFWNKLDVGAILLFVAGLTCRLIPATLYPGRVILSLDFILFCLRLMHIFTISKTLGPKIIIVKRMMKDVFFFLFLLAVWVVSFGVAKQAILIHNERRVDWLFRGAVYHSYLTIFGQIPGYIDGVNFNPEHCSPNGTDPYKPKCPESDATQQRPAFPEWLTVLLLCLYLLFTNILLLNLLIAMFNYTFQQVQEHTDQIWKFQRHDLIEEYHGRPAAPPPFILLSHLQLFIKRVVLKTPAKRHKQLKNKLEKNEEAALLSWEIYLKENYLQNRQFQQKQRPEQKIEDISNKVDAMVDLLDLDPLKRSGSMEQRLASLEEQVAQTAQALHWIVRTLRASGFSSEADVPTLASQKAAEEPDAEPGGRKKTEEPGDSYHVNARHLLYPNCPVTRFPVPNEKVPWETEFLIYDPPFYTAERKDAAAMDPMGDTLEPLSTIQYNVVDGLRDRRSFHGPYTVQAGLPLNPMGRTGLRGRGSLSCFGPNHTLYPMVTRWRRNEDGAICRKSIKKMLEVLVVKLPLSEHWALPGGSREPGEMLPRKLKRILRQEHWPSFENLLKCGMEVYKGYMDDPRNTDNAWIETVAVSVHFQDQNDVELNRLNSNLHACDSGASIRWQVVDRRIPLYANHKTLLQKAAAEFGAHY
UniProt P14598: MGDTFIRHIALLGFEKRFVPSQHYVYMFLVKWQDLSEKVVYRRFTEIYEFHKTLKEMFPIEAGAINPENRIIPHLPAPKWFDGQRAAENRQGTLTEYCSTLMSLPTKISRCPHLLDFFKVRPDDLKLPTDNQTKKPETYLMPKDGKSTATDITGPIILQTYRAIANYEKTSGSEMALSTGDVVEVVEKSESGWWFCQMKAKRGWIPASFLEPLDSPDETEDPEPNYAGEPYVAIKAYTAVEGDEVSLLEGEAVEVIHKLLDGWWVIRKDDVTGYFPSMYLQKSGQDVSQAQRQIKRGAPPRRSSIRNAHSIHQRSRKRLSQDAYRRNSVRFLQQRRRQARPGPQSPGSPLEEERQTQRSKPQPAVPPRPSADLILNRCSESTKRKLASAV

| binding | Substance |
| --- | --- |
| binds | p47 phox (from UniProt P14598 1-390) |
| binds | phosphorylated-Ser345 p47 phox (from UniProt P14598 1-390) |
